Experimental data as given in publication PMC2386117.

Protein sequences, listed by entry. Tags and fused reporters are not part of them. Lines headed by an entry give the natural chain unless they say otherwise; changes in a name come on top.
UniProt P13010: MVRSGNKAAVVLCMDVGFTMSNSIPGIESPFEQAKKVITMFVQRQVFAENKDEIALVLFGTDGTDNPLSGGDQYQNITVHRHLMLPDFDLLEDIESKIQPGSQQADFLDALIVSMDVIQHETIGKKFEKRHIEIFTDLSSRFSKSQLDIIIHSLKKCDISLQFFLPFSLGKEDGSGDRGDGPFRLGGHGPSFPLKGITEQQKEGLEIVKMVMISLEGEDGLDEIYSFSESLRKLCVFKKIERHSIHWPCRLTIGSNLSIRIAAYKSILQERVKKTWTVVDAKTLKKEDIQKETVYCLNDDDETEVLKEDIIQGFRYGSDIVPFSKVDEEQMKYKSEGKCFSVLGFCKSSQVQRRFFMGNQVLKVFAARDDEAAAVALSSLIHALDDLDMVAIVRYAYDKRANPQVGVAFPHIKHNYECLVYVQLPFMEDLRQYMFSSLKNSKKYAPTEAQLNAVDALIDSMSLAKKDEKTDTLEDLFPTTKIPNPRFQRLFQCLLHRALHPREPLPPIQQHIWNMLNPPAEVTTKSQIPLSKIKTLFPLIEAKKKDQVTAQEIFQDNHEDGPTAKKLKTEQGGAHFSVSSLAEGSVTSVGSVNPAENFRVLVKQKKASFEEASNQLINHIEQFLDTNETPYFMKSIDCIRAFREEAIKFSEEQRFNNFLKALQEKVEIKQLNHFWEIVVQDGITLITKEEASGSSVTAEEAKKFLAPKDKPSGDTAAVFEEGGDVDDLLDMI

Target: Ku86 (full-length, 86 kDa) (human) (UniProt P13010)
Experiment: EMSA
Settings: CESS cell extract, only full-length Ku86 complex found; 4 ug extract, 20 fmol biotin-DNA in 20 uL, 2.5% glycerol, 5 mM MgCl2, 50 ng/uL poly(dI-dC), 0.05% NP-40, room temperature 30 min; 5% native PAGE in 0.5x TBE; protein in an extract; residues 1-732; label: biotin at 5' ends (unlabeled as competitor)

ACTTGATTAGTTACGTAACGTTATG (double strand) [25-bp Ku86 binding oligonucleotide]
binding result: binds

Construct, isoform or probe ends are uncertain for at least one entry. Where cells or extracts were used, other partners may take part. At least one verdict was read from the data and is not stated in words by the source.
